The experiment has as its target USP10 (human), Q14694. Kind of experiment: co-IP; immunoprecipitation of Figure S6C; cells, bait and antibodies not given; lysates in IP lysis buffer, overnight at 4 °C. Conditions: remark: other sources report otherwise.

No constants are given. Whether binding was seen depends on the method and setting. In cells and extracts the contact can be indirect.

B1: SLC7A11, Q9UPY5 1-501 (protein)
chain: MVRKPVVSTISKGGYLQGNVNGRLPSLGNKEPPGQEKVQLKRKVTLLRGVSIIIGTIIGAGIFISPKGVLQNTGSVGMSLTIWTVCGVLSLFGALSYAELGTTIKKSGGHYTYILEVFGPLPAFVRVWVELLIIRPAATAVISLAFGRYILEPFFIQCEIPELAIKLITAVGITVVMVLNSMSVSWSARIQIFLTFCKLTAILIIIVPGVMQLIKGQTQNFKDAFSGRDSSITRLPLAFYYGMYAYAGWFYLNFVTEEVENPEKTIPLAICISMAIVTIGYVLTNVAYFTTINAEELLLSNAVAVTFSERLLGNFSLAVPIFVALSCFGSMNGGVFAVSRLFYVASREGHLPEILSMIHVRKHTPLPAVIVLHPLTMIMLFSGDLDSLLNFLSFARWLFIGLAVAGLIYLRYKCPDMHRPFKVPLFIPALFSFTCLFMVALSLYSDPFSTGIGFVITLTGVPAYYLFIIWDKKPRWFRIMSEKITRTLQIILEVVPEEDKL
As for B1, the binding entry was “no binding”.
